Laboratory results as given in the supplement of paper PMC12819154, “High-throughput peptide-centric local stability assay extends protein–ligand identification to membrane proteins, tissues and bacteria” (Nature Structural & Molecular Biology, 2025).
The other results are listed elsewhere or left out. Most values lie at the level of the controls, where differences are scatter.

Chains of the proteins cited; added tags and fusions are not shown. Lines headed by an entry give the natural chain unless they say otherwise; changes in a name come on top.
UniProt Q9EPK2: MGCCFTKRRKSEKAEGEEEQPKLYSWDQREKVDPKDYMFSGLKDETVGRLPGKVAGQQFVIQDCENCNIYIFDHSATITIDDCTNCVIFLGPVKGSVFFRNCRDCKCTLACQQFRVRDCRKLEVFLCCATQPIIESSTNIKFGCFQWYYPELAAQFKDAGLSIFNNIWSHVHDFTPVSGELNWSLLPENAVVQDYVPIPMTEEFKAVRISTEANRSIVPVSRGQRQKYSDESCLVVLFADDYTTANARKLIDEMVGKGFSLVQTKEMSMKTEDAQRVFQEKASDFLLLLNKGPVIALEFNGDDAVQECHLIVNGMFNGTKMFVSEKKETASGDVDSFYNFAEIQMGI
UniProt Q9DC07: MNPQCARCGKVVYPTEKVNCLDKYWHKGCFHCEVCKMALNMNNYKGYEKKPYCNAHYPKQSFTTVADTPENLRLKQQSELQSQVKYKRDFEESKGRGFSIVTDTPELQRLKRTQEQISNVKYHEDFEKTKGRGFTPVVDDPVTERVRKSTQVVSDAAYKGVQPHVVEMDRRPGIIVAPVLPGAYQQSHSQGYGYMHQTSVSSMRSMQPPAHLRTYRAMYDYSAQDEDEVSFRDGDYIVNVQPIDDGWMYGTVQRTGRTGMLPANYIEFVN
UniProt Q9EQT3: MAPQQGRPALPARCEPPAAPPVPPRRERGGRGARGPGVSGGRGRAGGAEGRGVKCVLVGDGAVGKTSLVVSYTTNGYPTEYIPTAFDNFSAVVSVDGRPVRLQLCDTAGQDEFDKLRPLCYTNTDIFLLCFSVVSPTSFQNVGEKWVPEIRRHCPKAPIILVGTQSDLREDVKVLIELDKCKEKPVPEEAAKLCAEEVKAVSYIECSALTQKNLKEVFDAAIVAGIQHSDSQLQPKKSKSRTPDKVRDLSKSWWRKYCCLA
UniProt Q9EQZ6: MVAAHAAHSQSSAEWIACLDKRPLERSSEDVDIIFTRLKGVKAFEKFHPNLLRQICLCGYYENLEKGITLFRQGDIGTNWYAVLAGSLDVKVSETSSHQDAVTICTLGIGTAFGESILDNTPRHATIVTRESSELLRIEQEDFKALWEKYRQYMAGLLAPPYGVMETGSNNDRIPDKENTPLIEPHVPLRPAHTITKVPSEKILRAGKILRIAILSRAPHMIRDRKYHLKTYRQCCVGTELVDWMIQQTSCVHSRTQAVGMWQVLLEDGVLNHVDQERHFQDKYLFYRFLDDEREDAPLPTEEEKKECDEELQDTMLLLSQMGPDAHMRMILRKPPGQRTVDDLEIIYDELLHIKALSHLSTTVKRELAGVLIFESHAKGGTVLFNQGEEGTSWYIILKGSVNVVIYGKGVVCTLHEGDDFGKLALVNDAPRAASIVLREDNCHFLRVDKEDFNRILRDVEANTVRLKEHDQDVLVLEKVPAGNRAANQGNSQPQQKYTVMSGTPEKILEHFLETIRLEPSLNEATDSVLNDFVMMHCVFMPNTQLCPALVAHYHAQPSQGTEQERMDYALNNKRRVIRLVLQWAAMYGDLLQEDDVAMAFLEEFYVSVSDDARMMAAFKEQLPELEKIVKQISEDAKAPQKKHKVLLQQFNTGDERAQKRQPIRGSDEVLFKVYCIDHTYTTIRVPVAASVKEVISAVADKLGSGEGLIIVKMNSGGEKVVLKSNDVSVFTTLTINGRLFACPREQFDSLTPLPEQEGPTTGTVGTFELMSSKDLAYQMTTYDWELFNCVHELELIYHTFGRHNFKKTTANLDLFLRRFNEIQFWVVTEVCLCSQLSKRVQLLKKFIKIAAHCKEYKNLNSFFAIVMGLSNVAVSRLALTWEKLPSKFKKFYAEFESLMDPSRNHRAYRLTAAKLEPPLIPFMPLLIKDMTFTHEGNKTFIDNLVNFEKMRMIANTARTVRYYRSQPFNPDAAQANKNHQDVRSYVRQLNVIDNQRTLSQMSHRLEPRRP
UniProt Q9DCE5: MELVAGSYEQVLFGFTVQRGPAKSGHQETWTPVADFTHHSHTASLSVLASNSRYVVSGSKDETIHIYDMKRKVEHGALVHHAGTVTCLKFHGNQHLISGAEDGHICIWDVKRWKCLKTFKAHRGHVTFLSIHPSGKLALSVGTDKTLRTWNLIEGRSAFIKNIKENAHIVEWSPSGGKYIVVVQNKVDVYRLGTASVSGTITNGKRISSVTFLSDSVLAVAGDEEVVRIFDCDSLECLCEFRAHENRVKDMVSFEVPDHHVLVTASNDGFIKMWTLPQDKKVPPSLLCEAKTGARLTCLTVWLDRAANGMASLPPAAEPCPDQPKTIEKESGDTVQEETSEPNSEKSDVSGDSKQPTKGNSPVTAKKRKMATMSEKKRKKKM
UniProt Q9EQF5: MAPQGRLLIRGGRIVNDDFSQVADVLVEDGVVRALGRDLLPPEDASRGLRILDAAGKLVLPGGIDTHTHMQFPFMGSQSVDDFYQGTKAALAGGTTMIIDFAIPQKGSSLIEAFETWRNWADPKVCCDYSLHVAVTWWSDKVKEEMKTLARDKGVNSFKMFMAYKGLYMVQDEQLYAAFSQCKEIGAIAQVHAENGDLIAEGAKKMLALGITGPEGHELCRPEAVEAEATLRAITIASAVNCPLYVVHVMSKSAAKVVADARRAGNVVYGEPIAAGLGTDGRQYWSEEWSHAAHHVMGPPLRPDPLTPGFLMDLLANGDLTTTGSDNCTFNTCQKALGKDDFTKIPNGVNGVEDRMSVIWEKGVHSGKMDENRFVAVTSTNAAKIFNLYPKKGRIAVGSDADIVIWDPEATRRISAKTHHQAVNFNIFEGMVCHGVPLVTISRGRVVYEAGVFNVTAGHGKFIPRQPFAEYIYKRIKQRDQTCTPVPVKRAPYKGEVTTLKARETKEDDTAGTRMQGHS
UniProt Q9DCS1: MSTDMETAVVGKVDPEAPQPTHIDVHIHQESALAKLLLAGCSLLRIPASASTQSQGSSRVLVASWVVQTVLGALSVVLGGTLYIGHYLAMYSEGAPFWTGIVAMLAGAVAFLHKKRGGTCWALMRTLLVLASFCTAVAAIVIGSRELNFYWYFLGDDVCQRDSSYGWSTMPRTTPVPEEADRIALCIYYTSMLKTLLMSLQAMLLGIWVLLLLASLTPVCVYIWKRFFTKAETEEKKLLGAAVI
UniProt Q9DCH6: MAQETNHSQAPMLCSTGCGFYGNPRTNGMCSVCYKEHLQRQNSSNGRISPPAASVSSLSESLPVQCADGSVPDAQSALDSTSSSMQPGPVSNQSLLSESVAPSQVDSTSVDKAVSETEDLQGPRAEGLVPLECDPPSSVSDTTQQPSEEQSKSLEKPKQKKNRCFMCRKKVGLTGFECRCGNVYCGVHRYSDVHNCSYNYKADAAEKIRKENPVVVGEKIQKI
UniProt Q9DBU5: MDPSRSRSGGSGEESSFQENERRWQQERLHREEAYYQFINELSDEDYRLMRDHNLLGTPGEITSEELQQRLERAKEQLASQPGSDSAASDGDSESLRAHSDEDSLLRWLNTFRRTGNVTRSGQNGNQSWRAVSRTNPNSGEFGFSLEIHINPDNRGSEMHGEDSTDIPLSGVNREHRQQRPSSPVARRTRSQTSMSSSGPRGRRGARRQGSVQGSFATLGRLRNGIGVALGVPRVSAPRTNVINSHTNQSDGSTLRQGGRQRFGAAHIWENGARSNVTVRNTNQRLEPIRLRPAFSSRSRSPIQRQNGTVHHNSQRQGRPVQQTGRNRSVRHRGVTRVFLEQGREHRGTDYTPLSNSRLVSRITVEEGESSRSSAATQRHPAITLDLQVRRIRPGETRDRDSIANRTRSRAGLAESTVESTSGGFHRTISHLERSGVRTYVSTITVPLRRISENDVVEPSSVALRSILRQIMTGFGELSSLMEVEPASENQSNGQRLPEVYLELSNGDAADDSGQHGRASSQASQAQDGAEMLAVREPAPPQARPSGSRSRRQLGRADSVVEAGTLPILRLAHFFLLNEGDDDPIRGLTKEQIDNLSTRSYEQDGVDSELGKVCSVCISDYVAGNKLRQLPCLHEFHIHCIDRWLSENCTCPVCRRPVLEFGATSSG

compound: CN[C@@H]1C[C@H]2O[C@@](C)([C@@H]1OC)n1c3ccccc3c3c4c(c5c6ccccc6n2c5c31)C(=O)NC4 [staurosporine]; assay: log2 fold change of tryptic peptide abundance, ligand vs vehicle (limited proteolysis) (log2 ratio); higher = more trypsin-susceptible (destabilized); conditions: ligand concentration: 20 uM; sample: mouse liver crude lysate; replicate design: treated separately

**Q.** With “UniProt Q9EPK2 (peptide sequence: LYSWDQR, peptide start residue: 23)” as the target, how does the log2 fold change read?
**A.** The log2 fold change was -0.134.

**Q.** With “UniProt Q9DC07 (peptide sequence: YHEDFEK, peptide start residue: 122)” as the target, how does the log2 fold change read?
**A.** Its log2 fold change is 0.0134.

**Q.** Which log2 fold change does the source give for “UniProt Q9EQT3 (peptide sequence: CVLVGDGAVGK, peptide start residue: 55)” here?
**A.** The log2 fold change was -0.207.

**Q.** Which log2 fold change does the source give for “UniProt Q9EQZ6 (peptide sequence: LALTWEKLPSK, peptide start residue: 878)” here?
**A.** Its log2 fold change is 0.691.

**Q.** Which log2 fold change does the source give for “UniProt Q9DCE5 (peptide sequence: KMATMSEK, peptide start residue: 369)” here?
**A.** Its log2 fold change is 0.587.

**Q.** How did the log2 fold change turn out when “UniProt Q9EQF5 (peptide sequence: QPFAEYIYKR, peptide start residue: 466)” was run?
**A.** Its log2 fold change is 0.176.

**Q.** With “UniProt Q9DCS1 (peptide sequence: LLLAGCSLLR, peptide start residue: 36)” as the target, how does the log2 fold change read?
**A.** The log2 fold change was 0.18.

**Q.** Which log2 fold change does the source give for “UniProt Q9DCH6 (peptide sequence: VGLTGFECR, peptide start residue: 171)” here?
**A.** Its log2 fold change is -0.331.

**Q.** How did the log2 fold change turn out when “UniProt Q9DBU5 (peptide sequence: AGLAESTVESTSGGFHR, peptide start residue: 411)” was run?
**A.** The log2 fold change was -0.382.
